The supplement of paper PMC7646827
Single values are uncertain, as repeats are few or missing.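 All cells are established human bladder cancer lines, one of them grown from a patient-derived xenograft. Viability was read by a luminescent ATP assay as percent inhibition versus vehicle over a seven-point dilution series; the paper calls scores above 59 very active, 30–59 active, 21–29 semi-active, 9–20 low active and below 9 inactive.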

Legend:
Experiment in all cases: drug sensitivity score DSS3 (score 0-100); higher = more sensitive; extreme values may be limits of the assay
Conditions in all cases: culture: 3D, ultra-low attachment; treatment time: 5 days
UM-UC-1 = tested on: UM-UC-1
UM-UC-9 = tested on: UM-UC-9
UM-UC-6 = tested on: UM-UC-6
TCCSUP = tested on: TCCSUP
J82 = tested on: J82
SW780 = tested on: SW780
UM-UC-3 = tested on: UM-UC-3
T-24 = tested on: T-24
UM-UC-18 = tested on: UM-UC-18
SCaBER = tested on: SCaBER
UM-UC-15 = tested on: UM-UC-15
UM-UC-14 = tested on: UM-UC-14
5637 = tested on: 5637
UM-UC-12 = tested on: UM-UC-12
UM-UC-17 = tested on: UM-UC-17
UM-UC-5 = tested on: UM-UC-5
BC8149 = tested on: BC8149

SMILES	drug sensitivity score DSS3 (UM-UC-1)	drug sensitivity score DSS3 (UM-UC-9)	drug sensitivity score DSS3 (UM-UC-6)	drug sensitivity score DSS3 (TCCSUP)	drug sensitivity score DSS3 (J82)	drug sensitivity score DSS3 (SW780)	drug sensitivity score DSS3 (UM-UC-3)	drug sensitivity score DSS3 (T-24)	drug sensitivity score DSS3 (UM-UC-18)	drug sensitivity score DSS3 (SCaBER)	drug sensitivity score DSS3 (UM-UC-15)	drug sensitivity score DSS3 (UM-UC-14)	drug sensitivity score DSS3 5637	drug sensitivity score DSS3 (UM-UC-12)	drug sensitivity score DSS3 (UM-UC-17)	drug sensitivity score DSS3 (UM-UC-5)	drug sensitivity score DSS3 (BC8149)
O=C(Nc1cccc(C(F)(F)F)c1)Nc1cc(S(=O)(=O)NC2CC2)ccc1-c1ccsc1 [AGI-6780] (max dose 10000 nM)	0	0	0	0.0814	0	0	2.51	0.637	0	0	14.6	0	0	0	0	0	1.16
OCCn1cc(-c2cnc3nnn(Cc4ccc5ncccc5c4)c3n2)cn1 (max dose 10000 nM)	0	0	0	0	0	0	0	0	0	0	0	0	0	0	0	0	0.0292
Cc1nc2ccc(-n3ncc(C(=O)c4cc5ccccc5[nH]4)c3N)cc2[nH]1 (max dose 10000 nM)	2.43	2.95	4.64	44	7.52	0	5.07	6.18	20.7	23.5	14.1	13.9	21.3	19.1	16.3	4.67	38
COc1cc(F)c(F)c(Nc2ccc(I)cc2F)c1NS(=O)(=O)C1(C[C@H](O)CO)CC1 [Refametinib (RDEA119, Bay 86-9766)] (max dose 10000 nM)	1.21	0	0.138	9.29	0	0.244	16.9	4.57	0	20.2	10.6	0	9	0	11.4	7.48	1.79
COc1cc2nc(N3CCCN(C)CC3)nc(NC3CCN(Cc4ccccc4)CC3)c2cc1OC (max dose 10000 nM)	0	0	0	0.122	0	0.24	0	0	0.118	0.121	0.124	0	0.122	0.137	0	0	1.37
c1c2c(cc3c1OCO3)-c1cc3ccc4c(c3c[n+]1CC2)OCO4 [Coptisine chloride] (max dose 10000 nM)	0.255	0	0	0	0	0	0	0	0	0	0	0	0	0	0	0	0
COc1nc(C)cnc1NS(=O)(=O)c1cccnc1-c1ccc(-c2nnco2)cc1 [AZD4054, Zibotentan (ZD4054)] (max dose 10000 nM)	0	0	0	0	0	0	0	0	0	0	0	0	0	0	0	0	0
CC1(C)CNc2cc(NC(=O)c3cccnc3NCc3ccncc3)ccc21 [Motesanib Diphosphate (AMG-706)] (max dose 10000 nM)	0	0	0	0	0	0	3.24	0.964	0	0	0.718	0.0487	0.156	1.89	0	0	3.25
COc1c(C)c(C(=O)c2ccc(N)c(C(=O)O)c2)n2ccccc12 (max dose 10000 nM)	0	0	0	0	0	0	0	0	0	0	0	0	0	0	0	0	0
Fc1ccc(Cl)cc1-c1nc(Nc2ccncc2)c2nccnc2n1 [SD-208] (max dose 10000 nM)	0	0.691	0	0	0	0	0	0	0	0	3.3	0	0	0	0	0	0
Cc1cn(CCN2CCN(c3ccccc3-c3cc(C#N)cc(C(=O)NCCCN4CCCC4)c3)CC2)c2ccccc12 [LLY-507] (max dose 10000 nM)	0.119	0.0962	0.139	0.105	0	0	0.621	0	0.0889	0.311	4.95	0	0.183	0	0	0.135	3.18
